Results: article PMC12823884
Results are given in words; binding and its absence hold for the method and conditions named. Binding seen in cells or lysates may run through a third protein. Some entries that bind do so weakly or less than the wild type.

Amino acid sequences for entries named in this document (tags omitted).
UniProt P52332: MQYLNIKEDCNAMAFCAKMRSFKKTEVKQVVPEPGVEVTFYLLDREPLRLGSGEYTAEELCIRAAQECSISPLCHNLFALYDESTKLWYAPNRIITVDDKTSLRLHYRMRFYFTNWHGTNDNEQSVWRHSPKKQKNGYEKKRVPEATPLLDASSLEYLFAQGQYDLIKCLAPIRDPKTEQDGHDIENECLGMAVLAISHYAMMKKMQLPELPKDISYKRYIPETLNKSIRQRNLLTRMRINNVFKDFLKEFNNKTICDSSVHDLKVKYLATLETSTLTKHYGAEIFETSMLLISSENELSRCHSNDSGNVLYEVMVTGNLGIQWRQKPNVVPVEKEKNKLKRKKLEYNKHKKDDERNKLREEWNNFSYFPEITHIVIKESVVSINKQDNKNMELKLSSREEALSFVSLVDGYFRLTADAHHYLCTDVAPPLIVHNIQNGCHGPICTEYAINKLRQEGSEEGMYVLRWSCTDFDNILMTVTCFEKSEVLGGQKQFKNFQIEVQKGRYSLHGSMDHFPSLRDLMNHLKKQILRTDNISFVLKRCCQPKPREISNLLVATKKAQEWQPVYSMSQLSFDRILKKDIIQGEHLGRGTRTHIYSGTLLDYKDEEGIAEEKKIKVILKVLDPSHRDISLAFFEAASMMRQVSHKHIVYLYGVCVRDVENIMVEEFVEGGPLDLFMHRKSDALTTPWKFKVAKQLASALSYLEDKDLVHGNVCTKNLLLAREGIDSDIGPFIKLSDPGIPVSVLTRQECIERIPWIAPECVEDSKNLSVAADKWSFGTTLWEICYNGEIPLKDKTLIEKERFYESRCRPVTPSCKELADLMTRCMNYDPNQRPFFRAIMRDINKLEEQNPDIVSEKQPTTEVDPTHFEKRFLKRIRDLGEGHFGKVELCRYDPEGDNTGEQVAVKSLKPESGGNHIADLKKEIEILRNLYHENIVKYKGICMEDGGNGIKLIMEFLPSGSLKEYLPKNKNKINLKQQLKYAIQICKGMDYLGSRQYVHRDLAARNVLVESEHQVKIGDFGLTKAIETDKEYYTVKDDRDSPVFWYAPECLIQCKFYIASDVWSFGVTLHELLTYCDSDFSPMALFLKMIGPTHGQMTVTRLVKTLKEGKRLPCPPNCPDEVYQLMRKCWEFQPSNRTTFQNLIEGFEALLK

Target: Janus kinase 1 (mouse (endogenous in BMDMs)) (UniProt P52332)
Assay: co-IP; BMDMs stimulated with IL-4 (20 ng/mL) for 30 min; NP-40 lysis buffer with protease and phosphatase inhibitors; 2 ug anti-JAK1 antibody (or mouse IgG) overnight at 4 °C, protein A/G magnetic beads, four washes, Western blot

binding: binds
B1: Signal Transducer And Activator Of Transcription 6 (protein, UniProt P52633 1-837)
chain: MSLWGLISKMSPEKLQRLYVDFPQRLRHLLADWLESQPWEFLVGSDAFCYNMASALLSATVQRLQATAGEQGKGNSILPHISTLESIYQRDPLKLVATIRQILQGEKKAVIEEFRHLPGPFHRKQEELKFTTALGRLQHRVRETRLLRESLQQGAKTGQVSLQNLIDPPVNGPGPSEDLATMLQGTVGDLEATQALVLKRIQIWKRQQQLAGNGTPFEESLAGLQERCESLVEIYSQLQQEIGAASGELEPKTRASLISRLDEVLRTLVTSSFLVEKQPPQVLKTQTKFQAGVRFLLGLQFLGTSAKPPMVRADMVTEKQARELSLAQGPGTGVESTGEIMNNTVPLENSIPSNCCSALFKNLLLKKIKRCERKGTESVTEEKCAVLFSTSFTLGPNKLLIQLQALSLPLVVIVHGNQDNNAKATILWDNAFSEMDRVPFVVAERVPWEKMCETLNLKFMAEVGTSRGLLPEHFLFLAQKIFNDNSLSVEAFQHRCVSWSQFNKEILLGRGFTFWQWFDGVLDLTKRCLRSYWSDRLIIGFISKQYVTSLLLNEPDGTFLLRFSDSEIGGITIAHVIRGQDGSSQIENIQPFSAKDLSIRSLGDRIRDLAQLKNLYPKKPKDEAFRSHYKPEQMGKDGRGYVSTTIKMTVERDQPLPTPEPQMPAMVPPYDLGMAPDASMQLSSDMGYPPQSIHSFQSLEESMSVLPSFQEPHLQMPPNMSQITMPFDQPHPQGLLQCQSQEHAVSSPEPMLCSDVTMVEDSCLTQPVGGFPQGTWVSEDMYPPLMPPTEQDLTKLLLENQGEAGGSLGSQPLLQPSPYGQSGISLSHLDLRTNPSW
